Among the data in the supplement of paper PMC10735217 are TEAD-luciferase reporter activity values, retold here.

The subject of this assay is HEK293A TEAD-LUC reporter. Description: TEAD-luciferase reporter activity (YAP activation), robust Z score vs plate; higher = stronger YAP/TEAD activation. The settings on record: 24 h. In general terms: In a reporter assay the amount or activity of a reporter protein is the signal.

The other results are listed elsewhere or left out. This data set is noisy: repeats of one test often differ as much as different tests do.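 Human kidney-derived cells stably carry a construct in which eight TEAD-binding elements drive luciferase, measured by luminescence in a drug-repurposing library screen. A hit is any compound whose signal exceeds the plate mean by more than five robust Z scores.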

For `C1Cc2[nH]nc(-c3nnn[nH]3)c2C1`, the TEAD-luciferase reporter activity was inactive: -0.759 (compound concentration: 200 nM), inactive: 0.921 (compound concentration: 2 uM) and inactive: 1.33 (compound concentration: 10 uM).

Take `COc1ccc(C[C@@H](C(=O)N[C@@H](C)c2cccc3ccccc23)N(C)S(=O)(=O)Cc2ccccc2)cc1`: the TEAD-luciferase reporter activity (compound concentration: 200 nM) was inactive: 3.27, the TEAD-luciferase reporter activity (compound concentration: 2 uM) was inactive: -0.803 and the TEAD-luciferase reporter activity (compound concentration: 10 uM) is inactive: 0.197.

As to `CCC(=O)O[C@]1(C(=O)S[C@H]2CCOC2=O)[C@H](C)C[C@H]2[C@@H]3C[C@H](F)C4=CC(=O)C=C[C@]4(C)[C@@]3(F)[C@@H](O)C[C@@]21C` [Zoticasone propionate], the TEAD-luciferase reporter activity is inactive: -1.45 (compound concentration: 200 nM), inactive: -0.323 (compound concentration: 2 uM) and inactive: 1.45 (compound concentration: 10 uM).

`Cc1cc2c(F)c(Oc3ncnn4cc(OC[C@@H](C)OC(=O)[C@H](C)N)c(C)c34)ccc2[nH]1` [brivanib alaninate]: the TEAD-luciferase reporter activity is inactive: 2.55 (compound concentration: 200 nM), inactive: -1.87 (compound concentration: 2 uM) and inactive: -1.89 (compound concentration: 10 uM).

Turning to `O=C(O)CC/C=C\C[C@@H]1CO[C@H](c2ccccc2Cl)O[C@@H]1c1ccccc1O`, the TEAD-luciferase reporter activity was inactive: -1.19 (compound concentration: 200 nM), inactive: -1.25 (compound concentration: 2 uM) and inactive: -1.08 (compound concentration: 10 uM).

Take `CN1C[C@H](O)[C@@H](O)[C@H](O)[C@H]1CO`: the TEAD-luciferase reporter activity was inactive: -1.26 (compound concentration: 200 nM), inactive: -0.942 (compound concentration: 2 uM) and inactive: 0.351 (compound concentration: 10 uM).

Take `O=c1c2c[nH]c3ccccc3c-2nn1-c1ccc(Cl)cc1`: the TEAD-luciferase reporter activity is, setting by setting: (compound concentration: 200 nM) inactive: 1.81; (compound concentration: 2 uM) inactive: 0.35; (compound concentration: 10 uM) inactive: 2.61.

Consider `COCCOC(=O)C1=C(C)NC(C)=C(C(=O)OC/C=C/c2ccccc2)C1c1cccc([N+](=O)[O-])c1` (stereo not drawn) [Cilnidipine], for which, under “compound concentration: 2 uM”, the TEAD-luciferase reporter activity was inactive: -0.579.

Turning to `COCCOC(=O)C1=C(C)NC(C)=C(C(=O)OC/C=C/c2ccccc2)C1c1cccc([N+](=O)[O-])c1` (stereo not drawn) [cilnidipine], the TEAD-luciferase reporter activity reads like this: (compound concentration: 200 nM) inactive: -0.578; (compound concentration: 2 uM) inactive: -2.29; (compound concentration: 10 uM) inactive: 0.0748.

With `O[C@H]1CC[C@H](Nc2nc(-c3ccccc3)nc3[nH]ccc23)CC1` [Derenofylline], the TEAD-luciferase reporter activity was inactive: -2.55 (compound concentration: 200 nM), inactive: -1.64 (compound concentration: 2 uM) and inactive: 2.98 (compound concentration: 10 uM).

Consider `O=C(O)CCC/C=C\C[C@@H]1[C@@H](/C=C/[C@@H](O)COc2cccc(Cl)c2)[C@H](O)C[C@@H]1O`, for which the TEAD-luciferase reporter activity was inactive: -0.766 (compound concentration: 200 nM), inactive: 1.82 (compound concentration: 2 uM) and inactive: 0.619 (compound concentration: 10 uM).

For `Cc1cc(SCc2sc(-c3ccc(C(F)(F)F)cc3F)nc2C)ccc1OC(C)(C)C(=O)O` [Sodelglitazar], under “compound concentration: 2 uM”, the TEAD-luciferase reporter activity was inactive: 2.7.

Consider `Cc1cc(SCc2sc(-c3ccc(C(F)(F)F)cc3F)nc2C)ccc1OC(C)(C)C(=O)O`, for which the TEAD-luciferase reporter activity is inactive: 0.61 (compound concentration: 200 nM) and active: 5.78 (compound concentration: 10 uM).

Consider `CS(=O)(=O)Oc1ccc(OCCc2ccc(CC(SCCc3ccc(O)cc3)C(N)=O)cc2)cc1` (stereo not drawn), for which the TEAD-luciferase reporter activity runs as follows: (compound concentration: 200 nM) inactive: -1.02; (compound concentration: 2 uM) inactive: -1.17; (compound concentration: 10 uM) inactive: 0.954.

As for `CN(CO)c1nc(N(C)CO)nc(N(C)CO)n1` [Trimethyl TMM], the TEAD-luciferase reporter activity is inactive: -0.903 (compound concentration: 200 nM), inactive: 0.322 (compound concentration: 2 uM) and inactive: 2.01 (compound concentration: 10 uM).

`O=C(O)CCC(=O)N1CCN(C2CCNCC2)C(=O)C1`: the TEAD-luciferase reporter activity was inactive: -1.54 (compound concentration: 200 nM) and inactive: 2.42 (compound concentration: 10 uM).

For the compound `O[C@]12CC[C@](c3nnc4c(Oc5ccccc5Cl)cccn43)(CC1)C2`, the TEAD-luciferase reporter activity reads like this: (compound concentration: 200 nM) inactive: -0.211; (compound concentration: 2 uM) inactive: 4.23; (compound concentration: 10 uM) inactive: 0.0494.

Take `Cc1ccc2c(c1)c1c(n2CCc2ccccc2)CCN(C)C1`: the TEAD-luciferase reporter activity is inactive: -0.0258 (compound concentration: 200 nM), inactive: -0.201 (compound concentration: 2 uM) and inactive: 2.47 (compound concentration: 10 uM).

Consider `O=C(NC1CCCCC1)N1C2CCC1CN(C1CCNCC1)C2`, for which the TEAD-luciferase reporter activity is inactive: 4.51 (compound concentration: 200 nM) and inactive: -0.273 (compound concentration: 10 uM).

On to `Cc1ccc(Nc2nnc(Cc3ccncc3)c3ccccc23)cc1Br`, for which the TEAD-luciferase reporter activity (compound concentration: 200 nM) is inactive: -2.18, the TEAD-luciferase reporter activity (compound concentration: 2 uM) is inactive: -1.63 and the TEAD-luciferase reporter activity (compound concentration: 10 uM) was inactive: -1.07.

Turning to `CC(C)(C)OC(=O)N[C@H]1CCCCC/C=C/[C@@H]2C[C@@]2(C(=O)NS(=O)(=O)C2CC2)NC(=O)[C@@H]2C[C@@H](OC(=O)N3Cc4cccc(F)c4C3)CN2C1=O` [Danoprevir], the TEAD-luciferase reporter activity is inactive: -0.857 (compound concentration: 200 nM), inactive: -0.788 (compound concentration: 2 uM) and inactive: 0.482 (compound concentration: 10 uM).

Turning to `CCOC(=O)C1=C(Cn2ccnc2)NC(C)=C(C(=O)OC)C1c1cccc([N+](=O)[O-])c1` (stereo not drawn), the TEAD-luciferase reporter activity is, setting by setting: (compound concentration: 200 nM) inactive: -0.274; (compound concentration: 2 uM) inactive: -0.657; (compound concentration: 10 uM) inactive: -0.616.

As to `CC(=O)c1ccc2c(c1)C(=O)C1(CC1)O2` [spizofurone], the TEAD-luciferase reporter activity by setting is: (compound concentration: 200 nM) inactive: -0.0721; (compound concentration: 2 uM) inactive: -0.561; (compound concentration: 10 uM) inactive: 0.28.

In the case of `COc1ccc(C(O)CC(C)CC(C)(C)C)c(Cl)c1` (stereo not drawn), the TEAD-luciferase reporter activity (compound concentration: 200 nM) is inactive: 4.44, the TEAD-luciferase reporter activity (compound concentration: 2 uM) is inactive: -1.57 and the TEAD-luciferase reporter activity (compound concentration: 10 uM) was inactive: 0.62.

On to `CC[C@H](C)[C@@H]1NC(=O)[C@H](Cc2ccc(O)cc2)NC(=O)[C@@H](N)CSSC[C@@H](C(=O)N2CCC[C@H]2C(=O)N[C@@H](CC(C)C)C(=O)NCC(N)=O)NC(=O)[C@H](CC(N)=O)NC(=O)[C@H](CCC(N)=O)NC1=O` [oxytocin, inhaled, GlaxoSmithKline], for which the TEAD-luciferase reporter activity (compound concentration: 200 nM) is inactive: -0.296 and the TEAD-luciferase reporter activity (compound concentration: 10 uM) is inactive: -1.21.

For `CC[C@H](C)[C@@H]1NC(=O)[C@H](Cc2ccc(O)cc2)NC(=O)[C@@H](N)CSSC[C@@H](C(=O)N2CCC[C@H]2C(=O)N[C@@H](CC(C)C)C(=O)NCC(N)=O)NC(=O)[C@H](CC(N)=O)NC(=O)[C@H](CCC(N)=O)NC1=O` [oxytocin, inhaled], the TEAD-luciferase reporter activity (compound concentration: 2 uM) is inactive: -0.505.
